In the supplement of paper PMC12889115:
Some of the results follow. Values are raw readings; no control value is given beside them.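 Primary screen: polymyxin B was added at a level permeabilizing Salmonella outer membranes while sparing inner membranes. DMSO wells, both with and without polymyxin B, established maximum growth. Plate-to-plate variation meant each plate was ranked on its own, and the lowest-OD600 compounds were selected as hits.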

Tested on: Salmonella enterica serovar Typhimurium SL1344
Assay: bacterial growth OD600 after 18 h with compound and polymyxin B; higher = more bacterial growth (less inhibition)
Conditions: 50 µM, Mueller-Hinton broth

Row | SMILES | bacterial growth OD600 (polymyxin B 1 µg/mL) | bacterial growth OD600 (polymyxin B 0.75 µg/mL)
1 | c1ccc(CN(Cc2nc(-c3ccccc3)no2)CC2CC2)cc1 | 0.648 | 
2 | c1cnc(N2CCC(C3CCN(Cc4nccs4)C3)CC2)nc1 (stereo unspecified) |  | 0.803
3 | O=C(CCC1CCN(C(=O)C2(c3ccccc3)CCCCC2)CC1)NC1CC1 | 0.797 | 
4 | C=CCS(=O)(=O)N1CCC(C2CCN(Cc3cccnc3)CC2)C1 (stereo unspecified) |  | 0.832
5 | CCCn1cc(C(=O)NC2CCCN(CCc3ccccc3)C2)c(C)n1 (stereo unspecified) | 1.07 | 
6 | CC(C)CN(C)Cc1cnc(S(=O)(=O)CC2CC2)n1CC1CCCO1 (stereo unspecified) |  | 0.861
7 | Cc1c(C(C)NCCc2ccccc2)cnn1-c1ccccc1 (stereo unspecified) |  | 0.82
8 | COc1ccc(CC2(CCC(=O)NC3CCCCCC3)CCC(=O)N2)c2ccccc12 (stereo unspecified) |  | 0.649
9 | Cc1ncc(CNCc2cccnc2Oc2ccc(C)c(F)c2F)cn1 | 0.97 | 
10 | Cc1ccc(CC2(CCC(=O)N3CCCC(OCc4ccccc4)C3)CCC(=O)N2)cc1 (stereo unspecified) |  | 0.792
11 | COc1ccc(C(=O)N2CCC3(CC2)c2ccccc2[C@@H](NC(=O)COc2ccccc2)[C@@H]3OC)o1 |  | 0.774
12 | O=C(CCC1(Cc2ccc3ccccc3c2)CCC(=O)N1)NCC1COc2ccccc2O1 (stereo unspecified) |  | 0.834
13 | Cc1ocnc1C(=O)N1CCC2(CCCN(Cc3ccccc3F)C2=O)C1 (stereo unspecified) | 1.22 | 
14 | Cc1ccc(CC2(CCC(=O)NCc3cc(C(F)(F)F)ccc3F)CCC(=O)N2)cc1 (stereo unspecified) |  | 0.749
15 | COc1ccccc1C(=O)N1CCCC(Nc2ccc(C)c(C)c2)C1 (stereo unspecified) | 0.916 | 
16 | COc1cccc(CC(C2CCN(C(=O)c3ccc(F)cc3)CC2)N(C)C(=O)c2ccn(C)n2)c1 (stereo unspecified) |  | 0.823

2 entries picked at random from the list so far:
Row | SMILES | bacterial growth OD600 (polymyxin B 1 µg/mL) | bacterial growth OD600 (polymyxin B 0.75 µg/mL)
16 | COc1cccc(CC(C2CCN(C(=O)c3ccc(F)cc3)CC2)N(C)C(=O)c2ccn(C)n2)c1 (stereo unspecified) |  | 0.823
11 | COc1ccc(C(=O)N2CCC3(CC2)c2ccccc2[C@@H](NC(=O)COc2ccccc2)[C@@H]3OC)o1 |  | 0.774

The list goes on:

Row | SMILES | bacterial growth OD600 (polymyxin B 1 µg/mL) | bacterial growth OD600 (polymyxin B 0.75 µg/mL)
17 | CCCn1ncc(CN2CCCC(CO)(CCCc3ccccc3)C2)c1C (stereo unspecified) |  | 0.828
18 | Cc1ccc(CNC(=O)Cn2nnnc2CN2CCCC2)s1 | 0.831 | 
19 | CC(NC(=O)c1cc(Cn2cnc3ccccc32)[nH]n1)c1cccs1 (stereo unspecified) | 0.981 | 
20 | CCN(CC1CCCN(CCc2cccc(F)c2)C1)C(=O)C1CCN(C)CC1 (stereo unspecified) | 0.752 | 
21 | O=C(c1ccc(F)cc1)N1CCC(C2(c3ccccn3)NC(=O)N(CCc3cccs3)C2=O)CC1 (stereo unspecified) |  | 0.945
22 | COc1ccc(CC(=O)NCC2CCCN(Cc3ccc(OC(F)(F)F)cc3)C2)cc1 (stereo unspecified) | 0.974 | 
23 | CCC1CN(C(=O)C2CC2(CC)CC)Cc2ccc(Cl)cc2O1 (stereo unspecified) |  | 0.2
24 | Fc1ccccc1-c1noc2c1CN(Cc1ccc3nonc3c1)CC2 |  | 0.385
25 | CN(Cc1ccn[nH]1)C(=O)C1CCN(c2nc(-c3ccccc3)nc3c2CCC3)CC1 |  | 0.599
26 | OCCOc1ccc(CN2CCCC(Nc3ccc(F)c(F)c3)C2)cc1 (stereo unspecified) | 0.888 | 
27 | COc1cccc(C(=O)NC2CC(=O)N(CCCc3ccccc3)C2)c1 (stereo unspecified) | 0.96 | 
28 | Cc1oc(-c2ccccc2NC(=O)C2CCC2)nc1CNC(=O)c1cc(C2CC2)nc2ccccc12 |  | 0.797
29 | O=C(CCC1CCCN(Cc2cccnc2)C1)Nc1ccccc1F (stereo unspecified) | 0.926 | 
30 | C=C(C)CN(CC)C(=O)CC1(c2ccccc2)CC(=O)N(CCCOc2cccnc2)C1=O (stereo unspecified) |  | 0.713
31 | CN(CC1(O)CCCN(Cc2ccc(F)c(F)c2)C1=O)C1CCCCC1 (stereo unspecified) | 0.979 | 
